Like-named read-outs stand apart in the source and are kept apart here. For some assays here: The expression values are mRNA levels of the gene; the protein chain is shown to identify it.
B1: M3K: mevalonate-3-kinase of Picrophilus torridus, enzyme and gene/transcript (optimized gene SEQ ID NO:1) (protein)
chain: MENYNVKTRAFPTIGIILLGGISDKKNRIPLHTTAGIAYTGINNDVYTETKLYVSKDEKSYIDGKEIDLNSDRSPSKVIDKFKHEILMRVNLDDENNLSIDSRNFNILSGSSDSGAAALGECIESIFEYNINIFTFENDLQRISESVGRSLYGGLTVNYANGRESLTEPLLEPEAFNNFTIIGAHFNIDRKPSNEIHENIIKHENYRERIKSAERKAKKLEELSRNANIKGIFELAESDTVEYHKMLHDVGVDIINDRMENLIERVKEMKNNFWNSYIVTGGPNVFVITEKKDVDKAMEGLNDLCDDIRLLKVAGKPQVISKNF
modifications: optimized gene; M3K optimized gene
B2: MVD: mevalonate diphosphate decarboxylase of Saccharomyces cerevisiae, enzyme and gene/transcript (optimized gene SEQ ID NO:2) (protein)
chain: MTVYTASVTAPVNIATLKYWGKRDTKLNLPTNSSISVTLSQDDLRTLTSAATAPEFERDTLWLNGEPHSIDNERTQNCLRDLRQLRKEMESKDASLPTLSQWKLHIVSENNFPTAAGLASSAAGFAALVSAIAKLYQLPQSTSEISRIARKGSGSACRSLFGGYVAWEMGKAEDGHDSMAVQIADSSDWPQMKACVLVVSDIKKDVSSTQGMQLTVATSELFKERIEHVVPKRFEVMRKAIVEKDFATFAKETMMDSNSFHATCLDSFPPIFYMNDTSKRIISWCHTINQFYGETIVAYTFDAGPNAVLYYLAENESKLFAFIYKLFGSVPGWDKKFTTEQLEAFNHQFESSNFTARELDLELQKDVARVILTQVGSGPQETNESLIDAKTGLPKE
modifications: optimized gene; MVD optimized gene sequence

How the values were obtained:
[1] = tested on: engineered strain of E. coli; format: cell-based
[2] = tested on: engineered strain of E. coli; test: M3K and MVD transcript abundance (share of RNA-seq reads aligned); conditions: for alignment rates: Day 30 glucose samples; for sequences aligned: glucose samples at day 1; for transcripts aligning: wastewater samples at day 1; for transcript abundance: wastewater samples, after one week
[3] = glucose samples aboard ISS, day 3 v day 7, […]
[4] = glucose samples aboard ISS, day 3 v day 14, […]
[5] = glucose samples aboard ISS, day 3 v day 30, […]
[6] = glucose samples aboard ISS, day 7 v day 14, […]
[7] = glucose samples aboard ISS, day 7 v day 30, […]
[8] = glucose samples aboard ISS, pairwise test day 3 against day 1, […]
[9] = glucose samples aboard ISS, pairwise test day 7 against day 1, […]
[10] = glucose samples aboard ISS, pairwise test day 14 against day 1, […]
[11] = glucose samples aboard ISS, pairwise test day 30 against day 1, […]

Molecule	Glucose ISS time Series Tests, Day 3v7 (change in gene expression) [1, 3]	Glucose ISS time Series Tests, Day 3v14 (change in gene expression) [1, 4]	Glucose ISS time Series Tests, Day3v30 (change in gene expression) [1, 5]	Glucose ISS time Series Tests, Day 7v14 (change in gene expression) [1, 6]	Glucose ISS time Series Tests, Day 7v30 (change in gene expression) [1, 7]	Glucose ISS time Series Tests, Day 1v3 (change in gene expression) [1, 8]	Glucose ISS time Series Tests, Day 1v7 (change in gene expression) [1, 9]	Glucose ISS time Series Tests, Day 1v14 (change in gene expression) [1, 10]	Glucose ISS time Series Tests, Day 1 v30 (change in gene expression) [1, 11]	alignment rates [2] [%]	sequences aligned [2] [%]	transcripts aligning [2] [%]	transcript abundance [2] [%]	also measured
aceA	0.46 ± 0.13	0.23 ± 0.13	−0.12 ± 0.13	−0.23 ± 0.13	−0.34 ± 0.13	−0.63 ± 0.15	−0.23 ± 0.13	−0.46 ± 0.13	−0.57 ± 0.13	–	–	–	–	–
aceK	–	–	–	–	–	–	–	–	–	–	–	–	–	Glucose ISS time Series Tests, Day 1v3 (change in gene expression) [1]: 0.06 ± 0.23; Glucose ISS time Series Tests, Day 1v7 (change in gene expression) [1]: 0.16 ± 0.20; Glucose ISS time Series Tests, Day 1v14 (change in gene expression) [1]: 0.92 ± 0.20; Glucose ISS time Series Tests, Day 1 v30 (change in gene expression) [1]: 0.21 ± 0.20; Glucose ISS time Series Tests, Day 3v7 (change in gene expression) [1]: 0.16 ± 0.20; Glucose ISS time Series Tests, Day 3v14 (change in gene expression) [1]: 0.92 ± 0.20; Glucose ISS time Series Tests, Day3v30 (change in gene expression) [1]: 0.21 ± 0.20; Glucose ISS time Series Tests, Day 7v14 (change in gene expression) [1]: 0.76 ± 0.20; Glucose ISS time Series Tests, Day 7v30 (change in gene expression) [1]: 0.05 ± 0.20
fadH	0.56 ± 0.14	−0.14 ± 0.14	0.63 ± 0.13	−0.70 ± 0.13	0.07 ± 0.13	0.05 ± 0.17	0.63 ± 0.14	−0.08 ± 0.15	0.70 ± 0.14	–	–	–	–	–
flgA	−0.04 ± 0.20	0.55 ± 0.18	0.28 ± 0.19	0.59 ± 0.18	0.32 ± 0.19	0.54 ± 0.23	0.52 ± 0.21	1.11 ± 0.20	0.84 ± 0.20	–	–	–	–	–
B1	–	–	–	–	–	–	–	–	–	0.93	2.11	2.2	0.88	–
B2	–	–	–	–	–	–	–	–	–	0.83	1.87	1.98	0.81	–
